Experimental data from article PMC12536475.
Results are given in words; binding and its absence hold for the method and conditions named. Binding seen in cells or lysates may run through a third protein. A yes stands for co-enrichment or nearness to the bait. Other partners may have been found.

Molecular target: T1, purinergic P2X3 receptor (mouse (endogenous in DRG)) (UniProt Q3UR32)
T1 sequence: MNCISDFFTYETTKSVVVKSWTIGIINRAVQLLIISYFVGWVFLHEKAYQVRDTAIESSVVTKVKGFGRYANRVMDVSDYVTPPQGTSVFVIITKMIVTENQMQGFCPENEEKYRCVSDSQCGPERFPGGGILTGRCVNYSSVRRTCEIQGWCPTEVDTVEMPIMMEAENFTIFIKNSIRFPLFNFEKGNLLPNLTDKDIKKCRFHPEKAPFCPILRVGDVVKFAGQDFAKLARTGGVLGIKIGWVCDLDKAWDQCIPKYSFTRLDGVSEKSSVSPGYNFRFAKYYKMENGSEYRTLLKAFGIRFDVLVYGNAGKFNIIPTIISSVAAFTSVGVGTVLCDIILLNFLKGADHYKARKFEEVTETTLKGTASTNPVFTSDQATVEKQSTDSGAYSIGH
Assay: affinity purification with mass spectrometry; anti-P2X3R immunoprecipitates from the DRG of 8-week naive mice, LC-MS/MS; hits with fold change > 2

B1: periaxin (protein, UniProt O55103 1-1391)
chain: MEARSRSAEELRRAELVEIIVETEAQTGVSGFNVAGGGKEGIFVRELREDSPAAKSLSLQEGDQLLSARVFFENFKYEDALRLLQCAEPYKVSFCLKRTVPTGDLALRPGTVSGYEMKGPRAKVAKLNIQSLAPVKKKKMVTGALGTPADLAPVDVEFSFPKFSRLRRGLKAEAVKGPVPAAPARRRLQLPRLRVREVAEEAQVARMAAAAPPPRKAKAEAEAATGAGFTAPQIELVGPRLPSAEVGVPQVSVPKGTPSTEAASGFALHLPTLGLGAPAAPAVEPPATGIQVPQVELPTLPSLPTLPTLPCLDTQEGAAVVKVPTLDVAAPSMGVDLALPGAEVEAQGEVPEVALKMPRLSFPRFGIRGKEATEAKVVKGSPEAKAKGPRLRMPTFGLSLLEPRPSGPEAVAESKLKLPTLKMPSFGIGVAGPEVKAPTGPEVKLPKVPEVKLPKVPEAAIPDVQLPEVQLPKMSDMKLPKIPEMVVPDVRLPEVQLPKVPEMKVPEMKLPKWPEMAVPDVHLPDVQLPKVPEMKLPKVPEMAVPDVHLPDVQLPKVPEMKLPEMKLPKVPEMAVPDVRLPEVQLPKVSEVKLPKMPEMAVPDVHLPELQLPKMSEVKLPKMPEMAVPDVRLPEVQLPKVSEMKLPKMPEMTMPDIRLPEVQLPKVPDIKLPEMKLPEIKLPKVPDMAVPDVPLPELQLPKVSDIRLPEMQVSQVPEVQLPKMPEMKLSKVPEVQRKSAGAEQAKGTEFSFKLPKMTMPKLGKVGKPGEASIEVPDKLMTLPCLQPEVGTEASHVGVPSLSLPSVELDLPGALGLEGQVQEAVPGKVEKPEGPRVAVGVGEVGFRVPSVEIVTPQLPTVEVEKEQLEMVEMKVKPSSKFSLPKFGLSGPKAVKGEVEGPGRATKLKVSKFTISLPKARAGTEAEAKGAGEAGLLPALDLSIPQLSLDAQLPSGKVEVADSKPKSSRFALPKFGVKGRDSEADVLVAGEAELEGKGWGWDGKVKMPKLKMPSFGLSRGKEAETQDGRVSPGEKLEAIAGQLKIPAVELVTPGAQETEKVTSGVKPSGLQVSTTGQVVAEGQESVQRVSTLGISLPQVELASFGEAGPEIVAPSAEGTAGSRVQVPQVMLELPGTQVAGGDLLVGEGIFKMPTVTVPQLELDVGLGHEAQAGEAAKSEGGIKLKLPTLGTGSRGEGVEPQGPEAQRTFHLSLPDVELTSPVSSHAEYQVVEGDGDGGHKLKVRLPLFGLAKAKEGIEVGEKVKSPKLRLPRVGFSQSESVSGEGSPSPEEEEEGSGEGASSRRGRVRVRLPRVGLASPSKVSKGQEGDATSKSPVGEKSPKFRFPRVSLSPKARSGSRDREEGGFRVRLPSVGFSETAVPGSTRIEGTQAAAI
With B1 the binding was “binds”.
